Reference: the supplement of paper PMC3682954
Where “and” joins values, the source holds several entries; their conditions need not be identical. Equal values may be shown once. Where a name gives a salt, the structure may show the parent alone. ± gives the standard deviation of the averaged measurements. The list shows a part of the results. Most values come without repeats; read them as rough.

Tested on: RAW 264.7
Test: cell viability (MTT) relative to vehicle control; higher = more viable cells
Conditions: stimulus: HMGB1 5 ug/ml, 18 h
[1] = compound concentration: 1 ug/ml

Row | Structure (SMILES) | cell viability (compound concentration: 3 uM) | cell viability [1]
1 | COc1ccccc1N1CCN(CCN(C(=O)c2ccc(I)cc2)c2ccccn2)CC1 [p-MPPI hydrochloride] | 115% | 
2 | CC1=C(/C=C/C(C)=C/C=C/C(C)=C/CO)C(C)(C)CCC1 | 113% | 
3 | CC1=C(/C=C/C(C)=C/C=C/C(C)=C/CO)C(C)(C)CCC1 [Retinol; Vitamin A, synthetic, 95.%] |  | 112%
4 | Nc1ncnc2c1ncn2[C@@H]1O[C@H](COP(=O)(O)OP(=O)(O)OP(=O)(O)OP(=O)(O)OC[C@@H]2O[C@H](n3cnc4c(N)ncnc43)C(O)[C@@H]2O)[C@H](O)C1O (stereo partly specified) [P1,P4-Di(adenosine-5')tetraphosphate triammonium] | 99.8% | 
5 | Nc1cc(N2CCCCC2)nc(N)[n+]1[O-] [Minoxidil] | 100 ± 15% | 
6 | Nc1cc(N2CCCCC2)nc(N)[n+]1[O-] | 108% | 
7 | C=C(C)[C@H]1CC=C(C)C(=O)C1 [D(+)-Carvone] |  | 106%
8 | COc1ccc2cc([C@H](C)C(=O)O)ccc2c1 [Naproxen] | 99.5 ± 10% | 
9 | COc1ccc2cc([C@H](C)C(=O)O)ccc2c1 | 98.7% | 
10 | COc1ccc2cc([C@H](C)C(=O)O)ccc2c1 [(-)-Naproxen sodium] | 105% | 
11 | O=C(O)c1cc(=O)[nH]c(=O)[nH]1 | 100% | 
12 | CC(=O)NCCCCCC(=O)O | 113% | 
13 | O=c1n(CCCN2CCN(c3cccc(Cl)c3)CC2)nc2ccccn12 | 100 ± 3.6% | 
14 | O=c1n(CCCN2CCN(c3cccc(Cl)c3)CC2)nc2ccccn12 [Trazodone hydrochloride] | 106.97 ± 0.092% | 
15 | C=C[C@H]1CN2CC[C@H]1C[C@H]2[C@H](O)c1ccnc2ccc(OC)cc12 [Quinine] |  | 85.2%
16 | C=C[C@H]1CN2CC[C@H]1C[C@H]2[C@H](O)c1ccnc2ccc(OC)cc12 [Quinine sulfate] | 101% | 
17 | C=C[C@H]1CN2CC[C@H]1C[C@H]2[C@H](O)c1ccnc2ccc(OC)cc12 | 99.5% and 110% | 
18 | CC1(C)S[C@@H]2[C@H](NC(=O)[C@H](N)c3ccccc3)C(=O)N2[C@H]1C(=O)O | 102% | 
19 | CC1(C)S[C@@H]2[C@H](NC(=O)[C@H](N)c3ccccc3)C(=O)N2[C@H]1C(=O)O [Ampicillin] | 91.8% | 
20 | CC1(C)S[C@@H]2[C@H](NC(=O)[C@H](N)c3ccccc3)C(=O)N2[C@H]1C(=O)O [Ampicillin trihydrate] | 85.1% | 
21 | CN(C)C(=O)n1nnnc1Cc1ccc(-c2ccccc2)cc1 | 44.5% | 
22 | CCC(NC(C)C)C(O)c1ccc(O)c2[nH]c(=O)ccc12 (stereo unspecified) [Procaterol] | 105% | 
23 | Oc1ccc(-c2nc(-c3ccc(F)cc3)c(-c3ccncc3)[nH]2)cc1 | 99.7% | 
24 | NC(=O)c1cnccn1 [Pyrazinamide] | 87.8% | 
25 | NC(=O)c1cnccn1 | 99.1% | 
26 | NC(=O)c1cnccn1 [Pyrazinecarboxamide] | 107% | 

Row | Structure (SMILES) | cell viability (compound concentration: 3 uM) | cell viability [1]
27 | CO[C@@H]1[C@H](OC(=O)/C=C/C=C/C=C/C=C/C(=O)O)CC[C@]2(CO2)[C@H]1[C@@]1(C)O[C@@H]1CC=C(C)C [Fumagillin] | 102% | 
28 | Nc1nc(N)c(N=O)c(OCC2CCCCC2)n1 | 120% | 
29 | CCCCC[C@H](O)/C=C/[C@H]1[C@H](O)CC(=O)[C@@H]1C/C=C\CCCC(=O)O [Dinoprostone] | 109% | 
30 | CSc1nc2cc(Cl)c(Oc3cccc(Cl)c3Cl)cc2[nH]1 | 102 ± 6.3% | 
31 | Cc1nc2ccccn2c(=O)c1CCN1CCC(C(=O)c2ccc(F)cc2)CC1 [Pirenperone] | 90.9 ± 13% | 
32 | Cc1nc2ccccn2c(=O)c1CCN1CCC(C(=O)c2ccc(F)cc2)CC1 | 102 ± 2.6% | 
33 | CCC(=O)c1ccc2c(c1)N(CCCN(C)C)c1ccccc1S2 [Propionylpromazine hydrochloride] | 103% | 
34 | N/C(=N\C(=O)c1nc(Cl)c(N)nc1N)NCc1ccccc1 [Benzamil hydrochloride] | 101 ± 12% | 
35 | N/C(=N\C(=O)c1nc(Cl)c(N)nc1N)NCc1ccccc1 [Benzamil] | 109% | 
36 | O=C(CCNNC(=O)c1ccncc1)NCc1ccccc1 [Nialamide] | 105 ± 10% | 
37 | O=C(CCNNC(=O)c1ccncc1)NCc1ccccc1 | 101 ± 8.5% | 
38 | CCCn1c(=O)c2[nH]c(C3CCCC3)nc2n(CCC)c1=O [8-Cyclopentyl-1,3-dipropylxanthine] | 102% | 
39 | COC(=O)C[C@](O)(CCCC(C)(C)O)C(=O)O[C@@H]1C(OC)=C[C@]23CCCN2CCc2cc4c(cc2[C@H]13)OCO4 | 1.33% | 
40 | C/C=C/c1ccc(OC)cc1 | 105% | 
41 | C/C=C/c1ccc(OC)cc1 [Anethole, trans-] | 99.7% | 
42 | CCCN(CCC)CCc1cccc2c1CC(=O)N2 | 103% | 
43 | CCCN(CCC)CCc1cccc2c1CC(=O)N2 [Ropinirole hydrochloride] | 124% | 
44 | CCCN(CCC)CCc1cccc2c1CC(=O)N2 [Ropinirole HCl] | 108% | 
45 | N=C(N)c1ccc(N)cc1 [4-Aminobenzamidine dihydrochloride] | 102% | 
46 | O[C@H]1[C@H](O)[C@@H](O)[C@H](O)[C@@H](O)[C@H]1O | 102% | 
47 | COc1cccc2c1C(=O)c1c(O)c3c(c(O)c1C2=O)C[C@@](O)(C(=O)CO)C[C@@H]3O[C@H]1C[C@H](N)[C@@H](O)[C@H](C)O1 | 2.34 ± 0.86% | 
48 | CC(=O)O[C@H]1C(=O)[C@@]2(C)[C@H]([C@H](OC(=O)c3ccccc3)[C@]3(O)C[C@H](OC(=O)[C@H](O)[C@@H](NC(=O)c4ccccc4)c4ccccc4)C(C)=C1C3(C)C)[C@]1(OC(C)=O)CO[C@@H]1C[C@@H]2O [Taxol] | 89.8 ± 26% | 
49 | CC(=O)O[C@H]1C(=O)[C@@]2(C)[C@H]([C@H](OC(=O)c3ccccc3)[C@]3(O)C[C@H](OC(=O)[C@H](O)[C@@H](NC(=O)c4ccccc4)c4ccccc4)C(C)=C1C3(C)C)[C@]1(OC(C)=O)CO[C@@H]1C[C@@H]2O | 91.5 ± 18% | 
50 | CC(=O)O[C@H]1C(=O)[C@@]2(C)[C@H]([C@H](OC(=O)c3ccccc3)[C@]3(O)C[C@H](OC(=O)[C@H](O)[C@@H](NC(=O)c4ccccc4)c4ccccc4)C(C)=C1C3(C)C)[C@]1(OC(C)=O)CO[C@@H]1C[C@@H]2O [Paclitaxel] | 53.5% | 
51 | Cc1[nH]c(=O)c(C#N)cc1-c1ccc2nccn2c1 [Olprinone hydrochloride] | 107% | 

Some of the entries above in another layout.
Row,Structure (SMILES),cell viability (compound concentration: 3 uM),cell viability [1]
38,"CCCn1c(=O)c2[nH]c(C3CCCC3)nc2n(CCC)c1=O [8-Cyclopentyl-1,3-dipropylxanthine]",102%,
39,COC(=O)C[C@](O)(CCCC(C)(C)O)C(=O)O[C@@H]1C(OC)=C[C@]23CCCN2CCc2cc4c(cc2[C@H]13)OCO4,1.33%,
40,C/C=C/c1ccc(OC)cc1,105%,
41,"C/C=C/c1ccc(OC)cc1 [Anethole, trans-]",99.7%,
